The numbers were not newly measured in article PMC12754617, “Ruthenium-enhanced curcumin derivatives target tumor growth and cancer-related inflammation in head and neck cancer models” (Frontiers in Oncology, 2025), which cites them from elsewhere.

The data set has as its system A549 cell line. Further details: method as in PMID 32598409. The settings on record: A549 cell line ref 33; cited from earlier work.

For the molecule `N.N.[Cl][Pt][Cl]` [cisplatin], the IC50 was 13.8 µM.

Usually IC50 stands for the point on the concentration scale where inhibition reaches its midpoint.
